According to PubChem BioAssay AID1347131 (National Center for Advancing Translational Sciences (NCATS), 2019):
Hit rate of the full screen: of about 410,000 compounds, about 2,000 (0.49%) were called active. This list was built around the results that the source calls inconclusive (neither active nor inactive); the mix of calls is not that of the screen. Calls come from the whole dose curve; tested in HEK293 reporter line. Potencies beside an inconclusive call are fits to weak or partial responses and may not hold up.

Assay: qHTS Assay for Foot and Mouth Disease Virus Antivirals: Primary Screen against the MLPCN compound library; note: nearly all actives have a fitted effect of over 55% in size
Conditions: FMDV antiviral cell-based qHTS; activity, negative = inhibition: at 57.9 µM (top of the series)
Potency is the fitted concentration of half-maximal effect.

| Compound | Potency | activity, negative = inhibition |
| --- | --- | --- |
| Cc1cc(N2CCCCC2)nc2ccc(NC(=O)c3ccc(Br)o3)cc12 | inconclusive: 39.8 µM [inhibitor, partial curve, poor fit] | – |
| Cc1cccc(-c2noc(CN(C(=O)COc3ccc(Br)cc3C)C(C)C)n2)c1 | inconclusive: 12.6 µM [inhibitor, partial curve, poor fit] | – |
| COc1cccc(N=Nc2ccc3ccccc3c2O)c1 | inconclusive: 17.8 µM [inhibitor, single point] | – |
| Cc1ccc(C)c(N2CCN(c3cnn(-c4nc5ccccc5s4)c(=O)c3Cl)CC2)c1 | inconclusive: 31.6 µM [inhibitor, single point] | – |
| O=C(Nc1nccs1)C(Br)C(Br)c1ccccc1 (stereo not drawn) | inconclusive: 25.1 µM [inhibitor, single point] | – |
| COc1ccc(-n2c(C)cc(C(=O)CCl)c2C)cc1 | inconclusive: 28.2 µM [inhibitor, partial curve, poor fit] | – |
| CCOC(=O)c1[nH]c2ccc(F)cc2c1NC(=O)CN1CCN(C/C=C/c2ccccc2)CC1 | inconclusive: 31.6 µM [inhibitor, partial curve, poor fit] | – |
| COc1ccc2c(/C=N/Nc3ccc(C(=O)O)cc3)c[nH]c2c1 | inconclusive: 15.8 µM [inhibitor, partial curve] | – |
| Cc1cccc(Nc2nc(N)c([N+](=O)[O-])c(N3CCC(C)CC3)n2)c1 | inconclusive: 25.1 µM [inhibitor, partial curve, poor fit] | – |
| COc1ccccc1N(C)S(=O)(=O)c1ccc(C(=O)N(C)Cc2ccc(OC(F)F)cc2)cc1 | inconclusive: 35.5 µM [inhibitor, partial curve, poor fit] | – |
| O=C(CCN1C(=O)C2CC=CCC2C1=O)Nc1cc(C(F)(F)F)ccc1N1CCCC1 (stereo not drawn) | – | inconclusive: -30.4% [inhibitor] |
| Cc1ccc(C(=O)Nc2ccc3c(c2)OCCO3)c(Cl)c1 | active: 11.2 µM | – |
| Cc1ccc(NC(=O)c2cc(S(=O)(=O)N3CCOCC3)c(Cl)cc2Cl)cc1 | inconclusive: 25.1 µM [inhibitor, partial curve, poor fit] | – |
| O=C(CN1CCC(c2nc3ccccc3s2)CC1)NCc1cccs1 | inconclusive: 15.8 µM [inhibitor, partial curve, poor fit] | – |
| CCCCN1C[C@H](CSC)[C@@H](CC(=O)NC)C1=O | – | inactive: -6.84% |
| CC1Cc2nc(SCC(=O)N3CCN(c4ccccc4)CC3)n(C)c(=O)c2S1 (stereo not drawn) | – | inactive: -31.1% |
| N#C/C(=C\c1c(Oc2ccc(Cl)cc2)nc2ccccn2c1=O)C(=O)NC1CCS(=O)(=O)C1 (stereo not drawn) | inconclusive: 20 µM [inhibitor, partial curve, poor fit] | – |
| CCN(CC)CCCC(C)n1c2nc(=O)[nH]c(=O)c-2nc2cc(Cl)ccc21 (stereo not drawn) | inconclusive: 11.2 µM [inhibitor, partial curve, poor fit] | – |
| O=C(CNC(=O)c1ccccc1F)N/N=C/c1cn[nH]c1-c1ccccc1 | inconclusive: 12.6 µM [inhibitor, partial curve] | – |
| COc1cccc(N2CCN(C(=O)C3CCC(CNS(=O)(=O)c4ccc(Br)s4)CC3)CC2)c1 (stereo not drawn) | inconclusive: 17.8 µM [inhibitor, partial curve, poor fit] | – |

Looked up above.
`COc1ccc(-n2c(C)cc(C(=O)CCl)c2C)cc1` | Potency: inconclusive: 28.2 µM [inhibitor, partial curve, poor fit]
`COc1ccc2c(/C=N/Nc3ccc(C(=O)O)cc3)c[nH]c2c1` | Potency: inconclusive: 15.8 µM [inhibitor, partial curve]
`COc1ccccc1N(C)S(=O)(=O)c1ccc(C(=O)N(C)Cc2ccc(OC(F)F)cc2)cc1` | Potency: inconclusive: 35.5 µM [inhibitor, partial curve, poor fit]

Remaining list, next part.

| Compound | Potency | activity, negative = inhibition |
| --- | --- | --- |
| CN(C)c1ccc(/C=C/c2ccc3c4ccccc4ccc3[n+]2-c2ccccc2)cc1 | inconclusive: 12.6 µM [inhibitor, partial curve, poor fit] | – |
| COCCn1c(C)cc(C(=O)COC(=O)C23CC4CC(CC(O)(C4)C2)C3)c1C | inconclusive: 20 µM [inhibitor, single point] | – |
| CCOC(=O)CN1C(=O)C(Sc2n[nH]c(-c3ccc(C)cc3)n2)CCc2ccccc21 (stereo not drawn) | inconclusive: 28.2 µM [inhibitor, partial curve, poor fit] | – |
| c1cc(-c2cc3cc(N4CCOCC4)ccc3o2)cs1 | inconclusive: 12.6 µM [inhibitor, single point] | – |
| CCC(Oc1ccccc1)C(=O)Nc1ccccc1OCc1cc(=O)n2ccccc2n1 (stereo not drawn) | inconclusive: 10 µM [inhibitor, partial curve, poor fit] | – |
| COc1ccccc1S(=O)(=O)Cc1ccc(C(=O)NCc2ccc3c(c2)OCO3)o1 | – | inactive: -32.7% |
| COc1ccc(-c2noc(C3CC(=O)N(c4cc(C)cc(C)c4)C3)n2)cc1 (stereo not drawn) | – | inactive: -32.6% |
| COc1ccccc1S(=O)(=O)Cc1ccc(C(=O)N2CCN(c3ccc(C)cc3)C(C)C2)o1 (stereo not drawn) | inconclusive: 31.6 µM [inhibitor, partial curve, poor fit] | – |
| O=C(CCCCCn1c(SCC(=O)c2ccccc2)nc2ccccc2c1=O)NCc1ccco1 | inconclusive: 17.8 µM [inhibitor, partial curve, poor fit] | – |
| Cc1ccc(C)c(N2CCN(C(=O)CN3C(=O)CSc4c3c(C)nn4-c3ccccc3)CC2)c1 | inconclusive: 35.5 µM [inhibitor, partial curve, poor fit] | – |
| CCN1C/C(=C/c2ccc(N3CCOCC3)cc2)C(=O)/C(=C/c2ccc(N3CCOCC3)cc2)C1 | inconclusive: 28.2 µM [inhibitor, partial curve, poor fit] | – |
| CCCc1nnc(NC(=O)c2nc(S(=O)(=O)Cc3ccc(C)cc3)ncc2Cl)s1 | inconclusive: 35.5 µM [inhibitor, partial curve, poor fit] | – |
| COc1cc2c(cc1OC)C(c1ccccc1)N(C(=O)CCl)CC2 (stereo not drawn) | inconclusive: 7.08 µM [inhibitor, full curve, poor fit] | – |
| Cc1ccc(NC(=O)CSc2nc3ccccc3c3nc(CCn4c(C)nc5ccccc54)nn23)cc1F | inconclusive: 31.6 µM [inhibitor, partial curve, poor fit] | – |
| COc1ccc([C@]2(C(C)C)ON(c3ccccc3C(F)(F)F)C2=O)cc1 | inconclusive: 7.94 µM [inhibitor, partial curve, poor fit] | – |
| Cc1ncoc1C(=O)Nc1ncc([N+](=O)[O-])s1 | inconclusive: 17.8 µM [inhibitor, single point] | – |
| CN(C)S(=O)(=O)N1CCC(Oc2cccc(C(=O)NCCC3=CCCCC3)c2)CC1 | – | inactive: -46.3% |
| COc1cc(/C=C2/SC(=O)N(CC(=O)N3CCCC3)C2=O)ccc1Oc1ccc([N+](=O)[O-])cn1 | inconclusive: 31.6 µM [inhibitor, partial curve, poor fit] | – |
| CC(C)OCCCNc1ncnc2c1[nH]c1ccc(F)cc12 | inconclusive: 39.8 µM [inhibitor, partial curve, poor fit] | – |
| O=C(NCC1CCN(S(=O)(=O)c2ccccc2)CC1)Nc1ccccc1 | inconclusive: 7.08 µM [inhibitor, partial curve, poor fit] | – |

| Compound | Potency | activity, negative = inhibition |
| --- | --- | --- |
| Fc1cccc(Cl)c1/C=C/c1cnc2ccccc2n1 | inconclusive: 14.1 µM [inhibitor, single point] | – |
| c1ccc(-c2cc(-c3ccccc3)[n+](-c3ccccc3)c(-c3ccccc3)c2)cc1 | inconclusive: 17.8 µM [inhibitor, partial curve, poor fit] | – |
| CC(C)(C)OC(=O)NCCCCCNC(=O)c1nc[nH]c1C(=O)NCCCCCNC(=O)OC(C)(C)C | inconclusive: 12.6 µM [inhibitor, partial curve, poor fit] | – |
| Cc1cc(C)nc(SCc2nnc(SCC(=O)OC3CCCCC3)o2)n1 | – | inconclusive: -31.4% [inhibitor] |
| COc1cc(CN2CCC(C(=O)NC(c3ccc(F)cc3)c3ccc4ccccc4n3)CC2)cc(OC)c1 (stereo not drawn) | inconclusive: 35.5 µM [inhibitor, partial curve, poor fit] | – |
| O=C(Cn1c(=O)c(=O)n(Cc2ccccc2)c2ccc(Cl)cc21)NCC1CCCO1 (stereo not drawn) | inconclusive: 7.08 µM [inhibitor, partial curve] | – |
| CC(C)CC(NC(=O)OC(C)(C)C)c1cn([C@@H](Cc2cc3ccccc3[nH]2)C(=O)N2CCN(C(=O)OC(C)(C)C)CC2)nn1 (stereo partly drawn) | inconclusive: 10 µM [inhibitor, partial curve, poor fit] | – |
| COc1cccc(-c2nc3ccc(N4CCN(C)CC4)cc3[nH]2)c1 | inconclusive: 14.1 µM [inhibitor, partial curve, poor fit] | – |
| Cc1cc(NC(=O)c2ccc3c(c2)OCO3)ccc1NC(=O)c1ccccc1 | – | inactive: -94.1% |
| Oc1cccc(/C=N/Nc2cccc3cccnc23)c1 | inconclusive: 15.8 µM [inhibitor, single point] | – |
| COc1ccc(-c2nc(NC(=O)c3[nH]c(C)c(C(C)=O)c3C)sc2C)cc1 | active: 28.2 µM | – |
| COc1ccc(-c2cc(C3CC3)nc3sc(C#N)c(N)c23)cc1 | inconclusive: 17.8 µM [inhibitor, single point] | – |
| CCN(CCNC(=O)C1CCN(S(=O)(=O)c2c(C)noc2C)CC1)c1ccccc1 | inconclusive: 8.91 µM [inhibitor, partial curve] | – |
| CCOc1ccccc1OCC(=O)Nc1cccc(S(=O)(=O)N2CCCCCC2)c1 | inconclusive: 39.8 µM [inhibitor, single point] | – |
| CC(=O)c1ccc(N2CCN(C(=O)CCCCn3c(=O)[nH]c4ccsc4c3=O)CC2)cc1 | – | inactive: -34.1% |
| COc1ccc(-c2nn(-c3ccccc3)cc2C(=O)n2nnc3ccccc32)cc1 | inconclusive: 20 µM [inhibitor, partial curve, poor fit] | – |
| CCC(C)Sc1ccc(-c2nc3ccc(C)cn3c2NCc2ccccc2)cc1OC (stereo not drawn) | inconclusive: 35.5 µM [inhibitor, partial curve, poor fit] | – |
| COc1ccc(NC(=O)N(C)[C@H]2C[C@H]3c4[nH]c5ccc(-c6ccc(OC)cc6)cc5c4CCN3C[C@H]2[C@H](C)O)cc1 | inconclusive: 10 µM [inhibitor, partial curve] | – |
